Reference: patent publication US20220079944A1, “2H-INDAZOLE DERIVATIVES AS THERAPEUTIC AGENTS FOR BRAIN CANCERS AND BRAIN METASTASES” (BETA PHARMA, INC., priority 2019, published 2022)

System: MDR1 (P-gp)
Test: in vitro
Conditions: dog, MDCK-MDR1

Papp: 0.06 ×10⁻⁶ cm/s
SMILES: CC(C)NCC(O)COc1ccc(CC(N)=O)cc1 (stereo not shown) [Atenolol]
